Source: paper PMC8278108
No constants are given. Whether binding was seen depends on the method and setting. In cells and extracts the contact can be indirect. Some entries that bind do so weakly or less than the wild type.

By UniProt entry, the sequences of proteins in these tests, tags left out.
UniProt O43474: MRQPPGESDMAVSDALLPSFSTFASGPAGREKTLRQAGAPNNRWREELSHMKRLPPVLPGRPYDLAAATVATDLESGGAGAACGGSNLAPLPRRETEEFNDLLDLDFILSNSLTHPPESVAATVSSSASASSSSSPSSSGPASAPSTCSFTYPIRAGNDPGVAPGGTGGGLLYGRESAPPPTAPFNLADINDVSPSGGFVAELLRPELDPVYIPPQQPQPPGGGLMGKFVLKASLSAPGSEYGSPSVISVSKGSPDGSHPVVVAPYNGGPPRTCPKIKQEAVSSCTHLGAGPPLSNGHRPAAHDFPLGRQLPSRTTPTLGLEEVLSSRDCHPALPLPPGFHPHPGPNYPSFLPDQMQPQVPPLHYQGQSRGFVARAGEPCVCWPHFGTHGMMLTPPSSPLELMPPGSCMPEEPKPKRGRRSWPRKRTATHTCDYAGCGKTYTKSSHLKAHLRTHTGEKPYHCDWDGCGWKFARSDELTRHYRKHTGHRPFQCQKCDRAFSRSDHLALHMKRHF

Biological target: Flag-tagged KLF4 (Krüppel-like factor 4), full length (human) (UniProt O43474)
Assay: co-IP; HEK293 cells co-transfected with Flag-KLF4 and Myc-USP11 (in Figure 2B also HA-Ub); Nonidet P-40 lysate; IP with anti-Flag beads, blot with anti-Myc

B1: Catalytically inactive USP11 (C318S) (enzyme, UniProt P51784 1-963)
chain: MAVAPRLFGGLCFRFRDQNPEVAVEGRLPISHSCVGCRRERTAMATVAANPAAAAAAVAAAAAVTEDREPQHEELPGLDSQWRQIENGESGRERPLRAGESWFLVEKHWYKQWEAYVQGGDQDSSTFPGCINNATLFQDEINWRLKEGLVEGEDYVLLPAAAWHYLVSWYGLEHGQPPIERKVIELPNIQKVEVYPVELLLVRHNDLGKSHTVQFSHTDSIGLVLRTARERFLVEPQEDTRLWAKNSEGSLDRLYDTHITVLDAALETGQLIIMETRKKDGTWPSAQLHVMNNNMSEEDEDFKGQPGICGLTNLGNTSFMNSALQCLSNVPQLTEYFLNNCYLEELNFRNPLGMKGEIAEAYADLVKQAWSGHHRSIVPHVFKNKVGHFASQFLGYQQHDSQELLSFLLDGLHEDLNRVKKKEYVELCDAAGRPDQEVAQEAWQNHKRRNDSVIVDTFHGLFKSTLVCPDCGNVSVTFDPFCYLSVPLPISHKRVLEVFFIPMDPRRKPEQHRLVVPKKGKISDLCVALSKHTGISPERMMVADVFSHRFYKLYQLEEPLSSILDRDDIFVYEVSGRIEAIEGSREDIVVPVYLRERTPARDYNNSYYGLMLFGHPLLVSVPRDRFTWEGLYNVLMYRLSRYVTKPNSDDEDDGDEKEDDEEDKDDVPGPSTGGSLRDPEPEQAGPSSGVTNRCPFLLDNCLGTSQWPPRRRRKQLFTLQTVNSNGTSDRTTSPEEVHAQPYIAIDWEPEMKKRYYDEVEAEGYVKHDCVGYVMKKAPVRLQECIELFTTVETLEKENPWYCPSCKQHQLATKKLDLWMLPEILIIHLKRFSYTKFSREKLDTLVEFPIRDLDFSEFVIQPQNESNPELYKYDLIAVSNHYGGMRDGHYTTFACNKDSGQWHYFDDNSVSPVNENQIESKAAYVLFYQRQDVARRLLSPAGSSGAPASPACSSPPSSEFMDVN
B1 was tested, and the binding was “binds”.
